The values that follow come from paper doi:10.1101/2022.04.19.488815.

By UniProt entry, the sequences of proteins in these tests, tags left out.
UniProt Q9FIJ0: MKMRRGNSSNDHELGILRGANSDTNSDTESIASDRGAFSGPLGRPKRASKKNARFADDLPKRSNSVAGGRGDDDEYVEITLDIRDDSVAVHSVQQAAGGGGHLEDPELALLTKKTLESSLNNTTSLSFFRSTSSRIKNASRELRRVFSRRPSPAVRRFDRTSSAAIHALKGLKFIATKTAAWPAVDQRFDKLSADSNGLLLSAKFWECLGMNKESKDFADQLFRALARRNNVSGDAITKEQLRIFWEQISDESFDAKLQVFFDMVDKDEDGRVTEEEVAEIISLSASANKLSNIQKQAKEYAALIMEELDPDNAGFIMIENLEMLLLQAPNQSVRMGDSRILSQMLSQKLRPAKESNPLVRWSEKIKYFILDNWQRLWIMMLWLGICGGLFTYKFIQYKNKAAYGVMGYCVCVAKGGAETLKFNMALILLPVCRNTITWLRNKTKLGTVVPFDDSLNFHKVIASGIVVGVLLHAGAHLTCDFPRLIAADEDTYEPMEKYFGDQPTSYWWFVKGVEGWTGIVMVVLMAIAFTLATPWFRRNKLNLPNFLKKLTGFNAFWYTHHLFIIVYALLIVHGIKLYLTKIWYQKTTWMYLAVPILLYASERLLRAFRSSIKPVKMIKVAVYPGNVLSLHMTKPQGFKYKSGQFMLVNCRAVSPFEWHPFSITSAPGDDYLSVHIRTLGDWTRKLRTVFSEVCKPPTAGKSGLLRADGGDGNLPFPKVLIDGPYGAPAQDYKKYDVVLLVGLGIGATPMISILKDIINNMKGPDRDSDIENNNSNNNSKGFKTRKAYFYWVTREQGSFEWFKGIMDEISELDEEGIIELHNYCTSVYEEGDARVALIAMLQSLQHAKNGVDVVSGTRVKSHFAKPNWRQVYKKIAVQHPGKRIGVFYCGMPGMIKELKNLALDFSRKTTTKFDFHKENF

The target in test [1] is P2K1 (LecRK I.9) fused to a split-luciferase half, for LCI (Arabidopsis thaliana) (UniProt Q9LSR8). Briefly: split reporter.
Test [2] addresses T1, P2K1-nYFP (Arabidopsis thaliana) (UniProt Q9LSR8).
T1 sequence: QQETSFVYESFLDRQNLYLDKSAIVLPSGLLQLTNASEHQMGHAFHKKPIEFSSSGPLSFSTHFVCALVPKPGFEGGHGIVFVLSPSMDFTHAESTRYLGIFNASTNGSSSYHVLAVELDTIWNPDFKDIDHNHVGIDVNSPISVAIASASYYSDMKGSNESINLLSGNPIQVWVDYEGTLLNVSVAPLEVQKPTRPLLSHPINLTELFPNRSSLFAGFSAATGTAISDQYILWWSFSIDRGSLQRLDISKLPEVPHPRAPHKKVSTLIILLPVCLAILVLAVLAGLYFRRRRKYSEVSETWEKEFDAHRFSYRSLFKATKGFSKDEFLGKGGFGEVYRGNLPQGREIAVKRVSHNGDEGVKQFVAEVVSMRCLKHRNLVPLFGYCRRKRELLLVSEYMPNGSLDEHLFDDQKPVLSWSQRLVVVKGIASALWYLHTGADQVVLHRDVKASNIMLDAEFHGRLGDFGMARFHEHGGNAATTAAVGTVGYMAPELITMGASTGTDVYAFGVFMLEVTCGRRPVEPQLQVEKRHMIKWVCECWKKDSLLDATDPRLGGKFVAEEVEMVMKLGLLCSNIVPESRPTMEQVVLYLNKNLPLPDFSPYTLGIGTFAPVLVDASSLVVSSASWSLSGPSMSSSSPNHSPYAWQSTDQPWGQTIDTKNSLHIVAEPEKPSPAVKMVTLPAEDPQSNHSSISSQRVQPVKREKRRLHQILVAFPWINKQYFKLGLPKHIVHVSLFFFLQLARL
As to the kind of experiment: split reporter.

The target in test [3] is ILK5^S192D, split-luciferase fusion for LCI (Arabidopsis thaliana) (UniProt Q93Z30). Briefly: split reporter.
Test [4] concerns the target ILK5-cLUC (Arabidopsis thaliana) (UniProt Q93Z30). Briefly: split reporter.
Test [5] addresses ILK5^S192A, split-luciferase fusion for LCI (Arabidopsis thaliana) (UniProt Q93Z30). As to the kind of experiment: split reporter.
Test [6] concerns the target T1, P2K1-nYFP (Arabidopsis thaliana). Briefly: split reporter. This is another data set of the same source.
The target of test [7] is T2, HA-tagged P2K1 (Arabidopsis thaliana) (UniProt Q9LSR8).
T2 sequence: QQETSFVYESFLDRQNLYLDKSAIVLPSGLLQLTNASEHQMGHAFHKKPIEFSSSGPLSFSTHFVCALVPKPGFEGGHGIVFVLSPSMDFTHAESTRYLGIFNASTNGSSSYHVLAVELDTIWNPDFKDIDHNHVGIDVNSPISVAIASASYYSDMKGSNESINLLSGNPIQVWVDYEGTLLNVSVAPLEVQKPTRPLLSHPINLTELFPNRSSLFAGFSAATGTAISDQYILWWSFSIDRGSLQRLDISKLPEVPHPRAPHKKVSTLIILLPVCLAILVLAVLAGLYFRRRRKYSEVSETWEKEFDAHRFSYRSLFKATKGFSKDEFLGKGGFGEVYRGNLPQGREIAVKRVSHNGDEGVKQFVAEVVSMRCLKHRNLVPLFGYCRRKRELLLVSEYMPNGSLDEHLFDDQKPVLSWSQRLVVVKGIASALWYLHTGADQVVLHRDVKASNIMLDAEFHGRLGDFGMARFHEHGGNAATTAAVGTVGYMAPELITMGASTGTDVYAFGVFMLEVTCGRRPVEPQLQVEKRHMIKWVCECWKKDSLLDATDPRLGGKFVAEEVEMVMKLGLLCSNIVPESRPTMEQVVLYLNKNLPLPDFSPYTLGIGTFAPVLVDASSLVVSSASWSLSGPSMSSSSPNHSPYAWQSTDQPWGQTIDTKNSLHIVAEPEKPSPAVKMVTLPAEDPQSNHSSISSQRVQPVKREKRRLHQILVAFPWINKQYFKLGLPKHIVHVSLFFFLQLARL
Briefly: co-IP.

In test [8] the target is T3, ILK5-cYFP (Arabidopsis thaliana) (UniProt Q93Z30).
T3 sequence: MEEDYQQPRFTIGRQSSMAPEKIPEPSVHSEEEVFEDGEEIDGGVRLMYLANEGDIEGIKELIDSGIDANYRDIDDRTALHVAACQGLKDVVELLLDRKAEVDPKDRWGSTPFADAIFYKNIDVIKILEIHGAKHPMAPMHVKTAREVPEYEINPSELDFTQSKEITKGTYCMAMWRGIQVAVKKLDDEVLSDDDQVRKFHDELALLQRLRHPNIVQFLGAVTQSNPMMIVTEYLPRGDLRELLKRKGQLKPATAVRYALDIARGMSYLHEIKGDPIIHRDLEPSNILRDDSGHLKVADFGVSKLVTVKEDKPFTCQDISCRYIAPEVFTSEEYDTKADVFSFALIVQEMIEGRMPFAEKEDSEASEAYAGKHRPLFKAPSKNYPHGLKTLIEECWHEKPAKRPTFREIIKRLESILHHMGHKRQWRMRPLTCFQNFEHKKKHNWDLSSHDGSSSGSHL
As to the kind of experiment: split reporter.

Where two headings read alike, the source gives them in different places. No constants are given. Whether binding was seen depends on the method and setting. In cells and extracts the contact can be indirect. Some binding calls cover weakened binding; strength is not graded here. For some assays here: Tags and fused reporters may be left off the sequences shown.

For “ILK5^S192D, split-luciferase fusion for LCI (from UniProt Q93Z30 1-459) (enzyme)”, in test [1], the binding result is “binds”.

In the case of “ILK5^S192A, split-luciferase fusion for LCI (from UniProt Q93Z30 1-459) (enzyme)”, the binding entry in test [1] is given as “binds”.

“ILK5-cLUC (from UniProt Q93Z30 1-459) (enzyme)”: the binding result in test [1] is on record as “binds”.

As to “RBOHD, split-YFP fusion for BiFC (from UniProt Q9FIJ0 1-921) (enzyme)”, the binding result in test [2] is on record as “binds”.

B1: MKK5-nLUC (enzyme, UniProt Q8RXG3 1-348)
chain: MKPIQSPSGVASPMKNRLRKRPDLSLPLPHRDVALAVPLPLPPPSSSSSAPASSSAISTNISAAKSLSELERVNRIGSGAGGTVYKVIHTPTSRPFALKVIYGNHEDTVRRQICREIEILRSVDHPNVVKCHDMFDHNGEIQVLLEFMDQGSLEGAHIWQEQELADLSRQILSGLAYLHRRHIVHRDIKPSNLLINSAKNVKIADFGVSRILAQTMDPCNSSVGTIAYMSPERINTDLNHGRYDGYAGDVWSLGVSILEFYLGRFPFAVSRQGDWASLMCAICMSQPPEAPATASQEFRHFVSCCLQSDPPKRWSAQQLLQHPFILKATGGPNLRQMLPPPRPLPSAS
As to B1, the binding entry in test [3], in test [4] and in test [5] was “binds” in each case.

B2: ILK5-cYFP (enzyme, UniProt Q93Z30 1-459)
chain: MEEDYQQPRFTIGRQSSMAPEKIPEPSVHSEEEVFEDGEEIDGGVRLMYLANEGDIEGIKELIDSGIDANYRDIDDRTALHVAACQGLKDVVELLLDRKAEVDPKDRWGSTPFADAIFYKNIDVIKILEIHGAKHPMAPMHVKTAREVPEYEINPSELDFTQSKEITKGTYCMAMWRGIQVAVKKLDDEVLSDDDQVRKFHDELALLQRLRHPNIVQFLGAVTQSNPMMIVTEYLPRGDLRELLKRKGQLKPATAVRYALDIARGMSYLHEIKGDPIIHRDLEPSNILRDDSGHLKVADFGVSKLVTVKEDKPFTCQDISCRYIAPEVFTSEEYDTKADVFSFALIVQEMIEGRMPFAEKEDSEASEAYAGKHRPLFKAPSKNYPHGLKTLIEECWHEKPAKRPTFREIIKRLESILHHMGHKRQWRMRPLTCFQNFEHKKKHNWDLSSHDGSSSGSHL
For the molecule B2, the binding entry in test [6] is listed as “binds”.

B3: Myc-tagged ILK5 (enzyme, UniProt Q93Z30 1-459)
chain: MEEDYQQPRFTIGRQSSMAPEKIPEPSVHSEEEVFEDGEEIDGGVRLMYLANEGDIEGIKELIDSGIDANYRDIDDRTALHVAACQGLKDVVELLLDRKAEVDPKDRWGSTPFADAIFYKNIDVIKILEIHGAKHPMAPMHVKTAREVPEYEINPSELDFTQSKEITKGTYCMAMWRGIQVAVKKLDDEVLSDDDQVRKFHDELALLQRLRHPNIVQFLGAVTQSNPMMIVTEYLPRGDLRELLKRKGQLKPATAVRYALDIARGMSYLHEIKGDPIIHRDLEPSNILRDDSGHLKVADFGVSKLVTVKEDKPFTCQDISCRYIAPEVFTSEEYDTKADVFSFALIVQEMIEGRMPFAEKEDSEASEAYAGKHRPLFKAPSKNYPHGLKTLIEECWHEKPAKRPTFREIIKRLESILHHMGHKRQWRMRPLTCFQNFEHKKKHNWDLSSHDGSSSGSHL
For the molecule B3, in test [7], the binding entry was “binds”.

B4: MKK4-nLUC (enzyme, UniProt O80397 1-366)
chain: MRPIQSPPGVSVPVKSRPRRRPDLTLPLPQRDVSLAVPLPLPPTSGGSGGSSGSAPSSGGSASSTNTNSSIEAKNYSDLVRGNRIGSGAGGTVYKVIHRPSSRLYALKVIYGNHEETVRRQICREIEILRDVNHPNVVKCHEMFDQNGEIQVLLEFMDKGSLEGAHVWKEQQLADLSRQILSGLAYLHSRHIVHRDIKPSNLLINSAKNVKIADFGVSRILAQTMDPCNSSVGTIAYMSPERINTDLNQGKYDGYAGDIWSLGVSILEFYLGRFPFPVSRQGDWASLMCAICMSQPPEAPATASPEFRHFISCCLQREPGKRRSAMQLLQHPFILRASPSQNRSPQNLHQLLPPPRPLSSSSSPTT
B4: the binding result in test [3], in test [4] and in test [5] was “binds” in each case.

B5: MKK4-nYFP (enzyme, UniProt O80397 1-366)
chain: MRPIQSPPGVSVPVKSRPRRRPDLTLPLPQRDVSLAVPLPLPPTSGGSGGSSGSAPSSGGSASSTNTNSSIEAKNYSDLVRGNRIGSGAGGTVYKVIHRPSSRLYALKVIYGNHEETVRRQICREIEILRDVNHPNVVKCHEMFDQNGEIQVLLEFMDKGSLEGAHVWKEQQLADLSRQILSGLAYLHSRHIVHRDIKPSNLLINSAKNVKIADFGVSRILAQTMDPCNSSVGTIAYMSPERINTDLNQGKYDGYAGDIWSLGVSILEFYLGRFPFPVSRQGDWASLMCAICMSQPPEAPATASPEFRHFISCCLQREPGKRRSAMQLLQHPFILRASPSQNRSPQNLHQLLPPPRPLSSSSSPTT
On to B5, for which, in test [8], the binding result is recorded as “binds”.

B6: ILK6-cYFP (enzyme, UniProt Q9XI87 1-438)
chain: MSSDSPAAGDGGEQAAAGTSVPSPSYDKQKEKARVSRTSLILWHAHQNDAAAVRKLLEEDPTLVHARDYDKRTPLHVASLHGWIDVVKCLLEFGADVNAQDRWKNTPLADAEGARKQKMIELLKSHGGLSYGQNGSHFEPKPVPPPIPKKCDWEIEPAELDFSNAAMIGKGSFGEIVKAYWRGTPVAVKRILPSLSDDRLVIQDFRHEVDLLVKLRHPNIVQFLGAVTERKPLMLITEYLRGGDLHQYLKEKGGLTPTTAVNFALDIARGMTYLHNEPNVIIHRDLKPRNVLLVNSSADHLKVGDFGLSKLIKVQNSHDVYKMTGETGSYRYMAPEVFKHRRYDKKVDVFSFAMILYEMLEGEPPFANHEPYEAAKHVSDGHRPTFRSKGCTPDLRELIVKCWDADMNQRPSFLDILKRLEKIKETLPSDHHWGLFTS
Regarding B6, the binding result in test [6] is recorded as “no binding”.
